{"source": "PubChem BioAssay AID504764 (Drosophila RNAi Screening Center, 2011)", "assay": "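Genome-wide screen for regulators of Notch-driven gene expression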 (primary screen)", "cells": "Drosophila Kc167 cells", "knock-down reagent": "long dsRNA against Drosophila genes", "duration": "about 5 days (4 days dsRNA, then 24 h after transfection)", "conditions": "transfection of constitutively active membrane-tethered Notch lacking the extracellular domain, read 24 h later", "read-out": "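Light from a Notch-responsive E(spl)m3 luciferase reporter under active Notch, with control-promoter and no-Notch reporter wells to normalise; raw counts from paired wells a and b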", "scale": "induced reporter light, run 1, well a and induced reporter light, run 1, well b: higher = more light from the Notch target reporter with active Notch; control promoter light, run 1, well a and control promoter light, run 1, well b: higher = more light from the viral control promoter (cell number, transfection, viability); uninduced reporter light, run 1, well a: higher = more light from the Notch target reporter without active Notch", "rule for the call": "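Wells with low control signal or poorly matching duplicates excluded; duplicates averaged; per source plate, z beyond ±2 for induced/control log2 ratio or beyond ±1.8 for induced/uninduced marks a hit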", "calls": "active = modifier hit (raised or lowered Notch signal); inactive = not a hit", "note": "The deposit covers about 22,000 reagents; below is an unselected part of those that have a named target and a result. Over the whole deposit, 403 (1.9%) were called active. 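Unnormalised raw counts per well; ratio z-scores behind the hit calls and whether each hit raises or lowers signal are not deposited.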 A number with no mark means an inactive call. Reagents against one gene are numbered here. The record does not give: the amount of reagent."}
The opening 3 entries, ahead of the listing:
{"Gene":"CG31064","reagent no.":1,"induced reporter light, run 1, well a":1.56e5,"induced reporter light, run 1, well b":1.62e5,"control promoter light, run 1, well a":2.07e5,"control promoter light, run 1, well b":2.21e5,"uninduced reporter light, run 1, well a":14370}
{"Gene":"CG31064","reagent no.":2,"induced reporter light, run 1, well a":1.56e5,"induced reporter light, run 1, well b":1.56e5,"control promoter light, run 1, well a":2.31e5,"control promoter light, run 1, well b":2.04e5,"uninduced reporter light, run 1, well a":13720}
{"Gene":"CG31064","reagent no.":3,"induced reporter light, run 1, well a":1.24e5,"induced reporter light, run 1, well b":1.35e5,"control promoter light, run 1, well a":2.12e5,"control promoter light, run 1, well b":1.45e5,"uninduced reporter light, run 1, well a":12120}

The listing, repeating the preview:
{"Gene":"CG31064","reagent no.":1,"induced reporter light, run 1, well a":1.56e5,"induced reporter light, run 1, well b":1.62e5,"control promoter light, run 1, well a":2.07e5,"control promoter light, run 1, well b":2.21e5,"uninduced reporter light, run 1, well a":14370}
{"Gene":"CG31064","reagent no.":2,"induced reporter light, run 1, well a":1.56e5,"induced reporter light, run 1, well b":1.56e5,"control promoter light, run 1, well a":2.31e5,"control promoter light, run 1, well b":2.04e5,"uninduced reporter light, run 1, well a":13720}
{"Gene":"CG31064","reagent no.":3,"induced reporter light, run 1, well a":1.24e5,"induced reporter light, run 1, well b":1.35e5,"control promoter light, run 1, well a":2.12e5,"control promoter light, run 1, well b":1.45e5,"uninduced reporter light, run 1, well a":12120}
{"Gene":"CG31064","reagent no.":4,"induced reporter light, run 1, well a":88460,"induced reporter light, run 1, well b":1.11e5,"control promoter light, run 1, well a":1.28e5,"control promoter light, run 1, well b":1.29e5,"uninduced reporter light, run 1, well a":9505}
{"Gene":"CG12402","reagent no.":1,"induced reporter light, run 1, well a":1.70e5,"induced reporter light, run 1, well b":1.91e5,"control promoter light, run 1, well a":2.11e5,"control promoter light, run 1, well b":1.84e5,"uninduced reporter light, run 1, well a":16490}
{"Gene":"ProtA","reagent no.":1,"induced reporter light, run 1, well a":1.32e5,"induced reporter light, run 1, well b":1.73e5,"control promoter light, run 1, well a":1.52e5,"control promoter light, run 1, well b":1.70e5,"uninduced reporter light, run 1, well a":12635}
{"Gene":"Act42A","reagent no.":1,"induced reporter light, run 1, well a":2.25e5,"induced reporter light, run 1, well b":2.20e5,"control promoter light, run 1, well a":2.14e5,"control promoter light, run 1, well b":2.16e5,"uninduced reporter light, run 1, well a":16325}
{"Gene":"CG32259","reagent no.":1,"induced reporter light, run 1, well a":1.74e5,"induced reporter light, run 1, well b":1.83e5,"control promoter light, run 1, well a":1.39e5,"control promoter light, run 1, well b":1.50e5,"uninduced reporter light, run 1, well a":14510}
{"Gene":"mRpL51","reagent no.":1,"induced reporter light, run 1, well a":1.76e5,"induced reporter light, run 1, well b":2.16e5,"control promoter light, run 1, well a":2.12e5,"control promoter light, run 1, well b":2.02e5,"uninduced reporter light, run 1, well a":13745}
{"Gene":"Gmer","reagent no.":1,"induced reporter light, run 1, well a":1.79e5,"induced reporter light, run 1, well b":1.86e5,"control promoter light, run 1, well a":2.03e5,"control promoter light, run 1, well b":1.94e5,"uninduced reporter light, run 1, well a":15820}
{"Gene":"CG3703","reagent no.":1,"induced reporter light, run 1, well a":1.23e5,"induced reporter light, run 1, well b":1.00e5,"control promoter light, run 1, well a":1.87e5,"control promoter light, run 1, well b":2.22e5,"uninduced reporter light, run 1, well a":8895}
{"Gene":"CG3703","reagent no.":2,"induced reporter light, run 1, well a":1.18e5,"induced reporter light, run 1, well b":1.14e5,"control promoter light, run 1, well a":2.11e5,"control promoter light, run 1, well b":1.71e5,"uninduced reporter light, run 1, well a":10555}
{"Gene":"CG3703","reagent no.":3,"induced reporter light, run 1, well a":85955,"induced reporter light, run 1, well b":94285,"control promoter light, run 1, well a":1.74e5,"control promoter light, run 1, well b":2.04e5,"uninduced reporter light, run 1, well a":7600}
{"Gene":"ppk9","reagent no.":1,"induced reporter light, run 1, well a":72210,"induced reporter light, run 1, well b":39870,"control promoter light, run 1, well a":43955,"control promoter light, run 1, well b":46585,"uninduced reporter light, run 1, well a":2565}
{"Gene":"ppk9","reagent no.":2,"induced reporter light, run 1, well a":37175,"induced reporter light, run 1, well b":39450,"control promoter light, run 1, well a":39185,"control promoter light, run 1, well b":46765,"uninduced reporter light, run 1, well a":1925}
{"Gene":"CG42271","reagent no.":1,"induced reporter light, run 1, well a":1.94e5,"induced reporter light, run 1, well b":2.09e5,"control promoter light, run 1, well a":2.16e5,"control promoter light, run 1, well b":1.99e5,"uninduced reporter light, run 1, well a":12150}
{"Gene":"Ugt303B1","reagent no.":1,"induced reporter light, run 1, well a":1.79e5,"induced reporter light, run 1, well b":1.82e5,"control promoter light, run 1, well a":1.82e5,"control promoter light, run 1, well b":1.75e5,"uninduced reporter light, run 1, well a":13710}
{"Gene":"CG42709","reagent no.":1,"induced reporter light, run 1, well a":1.26e5,"induced reporter light, run 1, well b":83580,"control promoter light, run 1, well a":64995,"control promoter light, run 1, well b":45350,"uninduced reporter light, run 1, well a":7995}
{"Gene":"CG13807","reagent no.":1,"induced reporter light, run 1, well a":94705,"induced reporter light, run 1, well b":1.09e5,"control promoter light, run 1, well a":1.87e5,"control promoter light, run 1, well b":1.54e5,"uninduced reporter light, run 1, well a":7010}
{"Gene":"xit","reagent no.":1,"induced reporter light, run 1, well a":1.48e5,"induced reporter light, run 1, well b":1.46e5,"control promoter light, run 1, well a":1.57e5,"control promoter light, run 1, well b":1.48e5,"uninduced reporter light, run 1, well a":10395}
{"Gene":"zfh1","reagent no.":1,"induced reporter light, run 1, well a":51720,"induced reporter light, run 1, well b":61745,"control promoter light, run 1, well a":64640,"control promoter light, run 1, well b":61445,"uninduced reporter light, run 1, well a":5035}
{"Gene":"zfh1","reagent no.":2,"induced reporter light, run 1, well a":71385,"induced reporter light, run 1, well b":80175,"control promoter light, run 1, well a":43145,"control promoter light, run 1, well b":46075,"uninduced reporter light, run 1, well a":7420}
{"Gene":"CG1647","reagent no.":1,"induced reporter light, run 1, well a":1.63e5,"induced reporter light, run 1, well b":1.97e5,"control promoter light, run 1, well a":1.86e5,"control promoter light, run 1, well b":1.71e5,"uninduced reporter light, run 1, well a":13120}
{"Gene":"RpS27","reagent no.":1,"induced reporter light, run 1, well a":60980,"induced reporter light, run 1, well b":47925,"control promoter light, run 1, well a":57905,"control promoter light, run 1, well b":70010,"uninduced reporter light, run 1, well a":3660}
